Measurements taken from patent US20040214757.

Key:
[1] = tested on: NF-kappaB (Mus musculus); assay: EMSA; conditions: protein in an extract
[2] = tested on: NF-kappaB (Homo sapiens); assay: EMSA; conditions: protein in an extract, protein details: PHA/PMA-stimulated Jurkat nuclear extract
[3] = tested on: NF-kappaB (Homo sapiens); assay: binding assay; conditions: CITED direct binding per footnote; protein in an extract; protein details: PHA/PMA-stimulated Jurkat nuclear extract; cited from earlier work
[4] = biological target: T1, Oct-2 phage 3 beta-galactosidase fusion (Homo sapiens) (UniProt P09086); assay: EMSA; conditions: kappa promoter PvuII-EcoRI probe; protein in a lysate after overexpression
T1 sequence (limits assumed): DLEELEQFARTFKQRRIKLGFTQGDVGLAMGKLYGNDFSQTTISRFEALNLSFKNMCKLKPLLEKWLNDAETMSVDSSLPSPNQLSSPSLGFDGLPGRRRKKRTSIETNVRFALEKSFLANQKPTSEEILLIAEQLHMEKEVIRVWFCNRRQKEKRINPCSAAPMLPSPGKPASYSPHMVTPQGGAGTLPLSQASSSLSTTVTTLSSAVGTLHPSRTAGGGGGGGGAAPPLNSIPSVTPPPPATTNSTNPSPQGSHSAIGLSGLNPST

[5] = biological target: T2, IgNF-B (NF-A2, lymphoid octamer binding protein) (Homo sapiens) (UniProt P09086); assay: EMSA; conditions: protein in an extract; protein details: BJAB nuclear extract
T2 sequence (looked up, limits assumed): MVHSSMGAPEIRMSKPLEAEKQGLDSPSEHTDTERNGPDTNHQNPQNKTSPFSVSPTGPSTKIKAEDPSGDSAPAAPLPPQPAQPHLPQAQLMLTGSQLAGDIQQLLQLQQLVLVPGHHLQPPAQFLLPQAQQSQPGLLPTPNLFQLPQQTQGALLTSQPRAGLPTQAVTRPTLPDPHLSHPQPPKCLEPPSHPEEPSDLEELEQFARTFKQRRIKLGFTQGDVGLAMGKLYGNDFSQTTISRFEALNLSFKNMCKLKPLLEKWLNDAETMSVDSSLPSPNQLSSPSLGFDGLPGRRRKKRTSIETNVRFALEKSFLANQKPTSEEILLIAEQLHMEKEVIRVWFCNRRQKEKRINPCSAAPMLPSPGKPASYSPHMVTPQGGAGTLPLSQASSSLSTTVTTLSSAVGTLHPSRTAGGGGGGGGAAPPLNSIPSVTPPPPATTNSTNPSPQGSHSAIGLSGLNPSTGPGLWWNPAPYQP

[6] = biological target: T3, IgNF-A (NF-A1, ubiquitous octamer binding protein) (Homo sapiens) (UniProt P14859); assay: EMSA; conditions: protein in an extract
T3 sequence (looked up, limits assumed): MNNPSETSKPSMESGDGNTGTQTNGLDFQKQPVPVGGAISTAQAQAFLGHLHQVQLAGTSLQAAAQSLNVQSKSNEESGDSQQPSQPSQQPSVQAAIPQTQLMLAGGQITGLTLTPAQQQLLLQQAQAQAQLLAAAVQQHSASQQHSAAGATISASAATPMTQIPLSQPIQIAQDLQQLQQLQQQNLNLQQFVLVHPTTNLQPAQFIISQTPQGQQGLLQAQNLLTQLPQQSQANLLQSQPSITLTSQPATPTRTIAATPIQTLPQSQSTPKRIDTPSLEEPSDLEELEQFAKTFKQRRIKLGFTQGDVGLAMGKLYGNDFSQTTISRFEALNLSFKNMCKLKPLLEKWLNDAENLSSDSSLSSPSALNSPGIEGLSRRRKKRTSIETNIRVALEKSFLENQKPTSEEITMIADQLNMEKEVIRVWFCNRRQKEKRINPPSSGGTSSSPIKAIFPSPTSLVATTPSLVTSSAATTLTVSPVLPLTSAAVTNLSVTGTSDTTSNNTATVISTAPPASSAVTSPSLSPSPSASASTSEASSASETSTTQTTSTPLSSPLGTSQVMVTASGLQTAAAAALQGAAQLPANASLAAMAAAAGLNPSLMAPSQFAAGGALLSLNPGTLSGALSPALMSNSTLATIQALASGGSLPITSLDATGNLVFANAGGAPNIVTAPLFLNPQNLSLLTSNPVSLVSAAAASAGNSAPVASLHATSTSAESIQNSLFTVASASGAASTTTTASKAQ

[7] = tested on: lambda h3 MHC-element binding protein beta-galactosidase fusion (Homo sapiens); assay: EMSA; conditions: protein in a lysate after overexpression
[8] = tested on: E factor (NF-muE3) (Homo sapiens); assay: EMSA; conditions: complex half-life less than 1 minute; protein in an extract; protein details: EW B lymphoma nuclear extract
[9] = tested on: lambda h3 MHC-element binding protein beta-galactosidase fusion (Homo sapiens); assay: binding assay; conditions: plaque filter screening; protein in a lysate after overexpression
[10] = biological target: T4, Oct-2 truncated at EagI (cDNA 655-945) (Homo sapiens) (UniProt P09086); assay: EMSA; conditions: protein translated in vitro
T4 sequence: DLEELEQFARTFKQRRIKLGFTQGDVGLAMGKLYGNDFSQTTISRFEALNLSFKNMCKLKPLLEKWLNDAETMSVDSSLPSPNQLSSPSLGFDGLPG

[11] = tested on: NF-kappaB (Mus musculus); assay: competition with a labelled probe; conditions: virus-infected 70Z/3; protein in an extract
[12] = biological target: T1, Oct-2 phage 3 beta-galactosidase fusion (Homo sapiens); assay: competition with a labelled probe; conditions: mutant slight competitor; protein in a lysate after overexpression; variant of MOPC-41 V kappa promoter octamer (VL)

GAGAAGTGAAAGTGGGAAATTCCTCTGAATAGAGAGAGGAC (double strand) [IRE (interferon-beta gene regulatory element)]
binding result ([1]; virus-infected 70Z/3): binds
binding result [2]: binds

GATCTGTGGGAAATTCCGTGGGAAATTCCGGATC (double strand) [PRDIIx2]
binding result [2]: binds

GGGGATTTCC (double strand) [human Ig kappa enhancer kappaB site]
binding result [3]: binds

GGGAATCTCC (double strand) [human IL-2R alpha site]
binding result [3]: binds

TCTTAATAATTTGCATACCCTCAC (double strand) [MOPC-41 V kappa promoter octamer (VL)]
binding result [4]: binds
binding result [5]: binds
binding result [6]: binds

GATCCGGCTGCGGATTCCCAATCT (double strand) [mhc1 mutant probe]
binding result ([7]; variant of MHC probe (H-2Kb element)): no binding
binding result ([2]; CITED, variant of MHC probe (H-2Kb element), cited from earlier work): no binding

AGCAGCTCATGTGGCAAGGCTA (double strand) [mu70 AluI-AluI enhancer fragment (E3)]
binding result [8]: binds

GGGATTTCAC (double strand) [IL-2 site]
binding result [3]: binds

AAATCCCCTAAAACGAGGGATAAA (double strand) [ori lambda O site probe]
binding result [9]: no binding

ATGCAAAT (double strand) [OCTA octanucleotide probe]
binding result [9]: no binding
binding result [10]: no binding

CCTGGGTAATTTGCATTTCTAAAA (double strand) [JH-Cmu heavy chain enhancer octamer]
binding result [6]: binds

TCGACAGAGGGGACTTTCCGAGAGGCTCGA (double strand) [kappaB wild-type oligonucleotide]
binding result [11]: binds
binding result [2]: binds

TCATTTCCAT (double strand) [mutant octamer]
binding result [12]: binds more weakly

GGGGATTCCT (double strand) [mouse IL-2R alpha site]
binding result [3]: binds

AAATACTTTCCG (double strand) [mutant kappa EN]
binding result ([7]; variant of kappa EN (Ig kappa enhancer kappaB site)): no binding
binding result ([1]; mutant kappa enhancer fragment, variant of kappa EN (Ig kappa enhancer kappaB site)): no binding

GGGATTCCCC (double strand) [H2-Kb site]
binding result [3]: binds

GGGACTTCCC (double strand) [MHC class II E alpha d site]
binding result [3]: binds

CGCACATGATTTGCATACTCATGA (double strand) [V17.2.25 VH promoter octamer]
binding result [6]: binds

AGGGGACTTTCCGG (double strand) [kappa EN (Ig kappa enhancer kappaB site)]
binding result [7]: binds
binding result ([1]; DdeI-HaeIII k3 fragment): binds

GATCCGGCTGGGGATTCCCCATCT (double strand) [MHC probe (H-2Kb element)]
binding result ([7]; methylation interference symmetric): binds
binding result ([2]; CITED, cited from earlier work): binds

For some assays here: Results from cells or extracts need not show a direct contact. For some assays here: A weaker result is weaker than the reference pair of the same experiment. For some assays here: Tags and fusion partners may be left off the protein sequences shown. For some assays here: For at least one entry, the source does not settle the construct or the ends of the probe. For some assays here: A negative result means that nothing was seen under these conditions.
